Laboratory results published in the RNAGym collection of RNA variant scans (doi:10.1126/science.aae0568).
This sample is rich in variants without activity.

B1: tRNA (parent)
chain: GUUCCGUUGGCGUAAUGGUAACGCGUCUCCCUCCUAAGGAGAAGACUGCGGGUUCGAGUCCCGUACGGAACG

Variants of: B1
Assay: yeast fitness relative to wild type (ratio to wild type); higher = fitter; tRNA-Arg(CCU), competitive growth, 37 C, YPD
Method in brief: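 Genotype frequency changes were the basis for Darwinian fitness relative to wild type. The frequencies came from 100-nucleotide paired-end sequencing of gene amplicons from the start population and each end population of pooled yeast strains with tRNA-Arg(CCU) gene variants at the native locus. Competition ran in YPD at 37°C for 24 hours in six replicates, genotypes needed ≥ 100 starting reads, and estimates < 0.5 were set to 0.5.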

| Variant | yeast fitness |
| --- | --- |
| GUUCCGUUGGCGUAAUGGUAACGCGUCUCCAUCGUAAGGAGAAGACUGCGGGUUGGUGUCCUGUACGGAACG [C31A C34G C55G A57U C62U] | ≤ 0.5 |
| GAUCAGUUCGCGUAACGGUAACGCCUCUCCCUCCUAAGGAGAAGACUGCGGGUUCGAGUCCCGUACGCAACG [U2A C5A G9C U16C G25C G68C] | 0.586 |
| GUUCCGUUGGCGUAAUGGUAACGCGUCUCCAUCCUAAGGAGAAGACUGCGGGUUCGAGUCCCGUAGGGAACG [C31A C66G] | 0.615 |
| GUUCCGUUGGCGUACUGGUAACGCGUCUCCCUCCUCACGAGAAGACUGCGGAUUCGAGUCCCGUACGGAUCG [A15C A36C G38C G52A A70U] | ≤ 0.5 |
| GUUCCGUUGGCGUAAUGGUAACGCGUCUCUCUCCUAAGGAGAAGACUGGGGGUUCGGGUCCCGUACUGAACG [C30U C49G A57G G67U] | ≤ 0.5 |
| GUGCGGUUGGCGUAAUGGCAACGCGUCUCCCUCCUAAGGAGAAGACUGCGGGUUCGAGUCCCGUAUGGAACG [U3G C5G U19C C66U] | 0.57 |
| GUUCCGUUGGCGUAAUGGCAAUGCCUGUCCCUCCUAAGGCGAAGACUGCGGGUUCGAGUCCCGUACGGAACG [U19C C22U G25C C27G A40C] | 0.587 |
| GUUCCGUUGGCGUAAUGGUAACGCGUCUCCCUGCUAAGGAGGAGACUGCGGAUUCGAGUCCGGUACGGAUCG [C33G A42G G52A C62G A70U] | ≤ 0.5 |
| GUUCCGUUGCCGUAAUGGUAACGCGUCUCCCUCCUAAGAAGAAGACUGCGGGUUCGAGUCCCGUACGGAACG [G10C G39A] | 0.563 |
| GUUGCGUUGGCGUAAUGGUAAGGCGUCUCCCUCCUAAGGAGAAGACUGCGGGUUCGAGUCCUGUACGGACCG [C4G C22G C62U A70C] | ≤ 0.5 |
| GUUCCGUUGGCGUUAUGGUAACGCGUCUCCCUCCUAAGGAGAAGACUGCGGCUUGGAGUCCCGUACGGAACG [A14U G52C C55G] | ≤ 0.5 |
| GUUCCGGUGGCGAAGUGGUAACGCGUCUCCCCCCUAAGGAGAAGACUGCGGGUACGAGUCUCGUACGGAACG [U7G U13A A15G U32C U54A C61U] | ≤ 0.5 |
| GUUCCGUCGGCCUAAUGGUAACGCGUCUCCCUCCUAAGGAGAAGAGUGCGGAUUCGAAUCCCGUACGGAACG [U8C G12C C46G G52A G58A] | ≤ 0.5 |
| GUUCCGUUGGCGUAAUGGUAACGCGUCUCCCUCCUAAGGAGAAGAGUGCGGGUUCGAGUGCCGUAUGGAACG [C46G C60G C66U] | ≤ 0.5 |
| GUUCCGUUGGCGUAAUGGUAACGCGUCUCCCUCCUAAGGAGUAGACUGCGGCUUCGAGUCCCGUACGGAACG [A42U G52C] | 0.694 |
| GAUCCGUUGGCGUAAUGGACACGCGACUCCCUCCUAAGGAGAAGACUGCGGGUUCGCGUCCCGUAAGGAACG [U2A U19A A20C U26A A57C C66A] | ≤ 0.5 |
| GUUCCGUUGGCGUAAUGGUAACGCGUCUCCCUCCUUAGGAGAAGACUGAGGGUUCGAGUCCCGUACGGAACG [A36U C49A] | ≤ 0.5 |
| GUUCCGUUGGCGUAUUGGUAACGCGUGUCCCUCCUCAGGAGAAGACUGCGGGUUCGAGUCCCGUACGGAACG [A15U C27G A36C] | ≤ 0.5 |
| GUUCGGUUGGCGAAAUGGUAACGCGUCUCUCUCCUAAGGAGAAGACUGCGGGUUCGAGUCCUGUACGGAACG [C5G U13A C30U C62U] | ≤ 0.5 |

| Variant | yeast fitness |
| --- | --- |
| GUUCCGUUGGCGUCAUGGUAACGCGUCUCGCUCCUAAGGAGAAGACUGCGGGUUCGAGUCCCGUACGGAACG [A14C C30G] | 0.508 |
| GUUCCGUUGGCGUAAUGGUAACGCGUCUCCCUCAUAAGGAGAAGACUGCGGGUUCGAGUCCUGUGCGGAACG [C34A C62U A65G] | ≤ 0.5 |
| GUUCCGUUGGCGUAAUGGUAACGCAUCUCCCUCCUAAGGAGAAGACUGCGGGUUCGAGUCCCGUAGGGAACG [G25A C66G] | 0.962 |
| GUUCCGUUGGCGUAAUGGUAACGGGUCUCCCUCCUAAGGAGAAGACUGCGGCUUCGAGUGCCGUACGGAACG [C24G G52C C60G] | ≤ 0.5 |
| GUUCCGUUGGCGUAAUGGUAACGCGUCUCCCUCCUAAGGACAAGACUGCGGGUUCGAGUCCGGUACGGAACG [G41C C62G] | 0.597 |
| GUUCCGUUGGCGUAAUAGUAACGGGUCUCCCUUCUAUGGAGAAGACUGCGGGUUCGAGUCCCGUACGGAACG [G17A C24G C33U A37U] | ≤ 0.5 |
| GUUCCGUUGGCGUAAUGGUAACGCGUCUCCCUCCUAAGGAGAAGACUGCGGGUUCAAGCCCCGUCCGGAACG [G56A U59C A65C] | 0.738 |
| GUUCCGUUGGCGUACUGGUAACGCGUCUCCUUCCGAAGGAGAAGACUGCGGGUUCGAGUCCUGUACGGAACG [A15C C31U U35G C62U] | ≤ 0.5 |
| GUUCAGUCGGCGUAAUGGUAACGCGUUUCCCUCCUAAGGGGAAGACUGUGGGUUGGAGUCCCGUACGGAACG [C5A U8C C27U A40G C49U C55G] | ≤ 0.5 |
| GUUCCGUUGGCGUAAUGGUAACGCGUCGCCCUCCUAAGGAGAAGACUGCGGGUUCGAGUGCCGUACGGAACG [U28G C60G] | 0.603 |
| GUUCAGUUGGCGUAAUGGUAACGCGUCUCCCUCUUAAGGGGAAGACUGCGGGUUCGAGUGCCAUACGGAACG [C5A C34U A40G C60G G63A] | ≤ 0.5 |
| GUUCCAUUGGCGUAAUGGUAAUGCGUCUCCCUCCUAAGGAGAAGACUGCGGGUUGGAGUCCCGUACGGACCG [G6A C22U C55G A70C] | ≤ 0.5 |
| GUUCCGUUGGUGUAAUGGUAACGUGUCUCCCUCUUAAGGAGAAGAAUGCGGGUUCGAGUCCCGUACGGAACG [C11U C24U C34U C46A] | ≤ 0.5 |
| GUUCCGUUGGCGUAAUGGUAACGCGUCUUCCUCCUAAGGAGAAGACUGCGGGUUCGAGUACCGUACGUCACG [C29U C60A G68U A69C] | ≤ 0.5 |
| GUUCCGUUGGCGUAAUGGUAACGCGUCUUCCUCCUAAGGAGAAGACUGCGGGUUCGGGCCCCGUACGGAACG [C29U A57G U59C] | ≤ 0.5 |
| GUUCCGUUGGCGUAAUGGUAACGCGUCUCAGACCUAAGGAGAAGACUGCGGGUUUGAGUCCCGUACCGAACG [C30A C31G U32A C55U G67C] | ≤ 0.5 |
| GUUCCGUUGGCGUAAUGGAAACGCGUCUCCCUCCUAAGGAGAAGACUGCGGGUUCGCGUCCCGAACGGAACG [U19A A57C U64A] | ≤ 0.5 |
| GUUCCGUUGGCGGAAUGGUAACGCGUCUCCCUCCUAAGGAGAAAACUGCGGGUUCGUGUCCCGUACAGAACG [U13G G44A A57U G67A] | ≤ 0.5 |
| GUUCCAUUGGAGUCAUGGCAACGCGUCUCCCUCCUGAGGAGAAGACUGUGGGUUCGAGUCCCGUACGGAACG [G6A C11A A14C U19C A36G C49U] | ≤ 0.5 |
